# Reference: the supplement of paper PMC6411743
# ± gives the standard deviation of the averaged measurements. The list shows a part of the results.
# What was measured:
# Assay in all cases: NP40-soluble protein abundance relative to vehicle (solubility fold change) (ratio); higher = more soluble protein in presence of GTP
# [1] = target: T1, UniProt Q8WYQ5 and related entries
# T1 sequence (whole entry): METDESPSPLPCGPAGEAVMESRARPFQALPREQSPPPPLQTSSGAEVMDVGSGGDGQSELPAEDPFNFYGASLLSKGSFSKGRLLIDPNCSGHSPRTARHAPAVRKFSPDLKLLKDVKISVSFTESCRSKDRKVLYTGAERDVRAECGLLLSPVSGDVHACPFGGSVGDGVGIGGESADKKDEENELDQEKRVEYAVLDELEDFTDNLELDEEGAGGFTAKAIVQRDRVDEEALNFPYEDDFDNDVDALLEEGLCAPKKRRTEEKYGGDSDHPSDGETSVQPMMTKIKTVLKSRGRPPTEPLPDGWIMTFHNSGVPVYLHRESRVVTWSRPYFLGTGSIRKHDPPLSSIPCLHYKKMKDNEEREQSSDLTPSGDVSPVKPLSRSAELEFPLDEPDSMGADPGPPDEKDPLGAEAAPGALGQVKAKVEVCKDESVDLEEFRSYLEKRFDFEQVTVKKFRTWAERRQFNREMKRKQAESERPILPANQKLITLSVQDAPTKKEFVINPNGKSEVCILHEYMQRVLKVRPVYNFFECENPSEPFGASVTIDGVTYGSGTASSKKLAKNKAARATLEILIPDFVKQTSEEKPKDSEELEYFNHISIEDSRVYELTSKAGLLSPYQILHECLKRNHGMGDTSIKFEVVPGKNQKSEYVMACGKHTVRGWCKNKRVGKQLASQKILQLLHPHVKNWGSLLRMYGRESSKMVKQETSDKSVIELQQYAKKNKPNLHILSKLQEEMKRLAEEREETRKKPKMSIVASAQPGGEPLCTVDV
# Procedure, shortened: (§1)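 Values are fold changes against the detergent-processed vehicle, based on vsn-normalised intensities. Jurkat crude lysate was treated at eight concentrations from 0.1 to 10 mM (10 min at room temperature, then 3 min at 37 °C), solubilised with 0.8% NP40 and benzonase, ultracentrifuged and analysed by TMT-labelled LC-MS/MS over three independent experiments.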
# [2] = target: T2, UniProt Q92796-3|Q5JUW8 and related entries
# T2 sequence (whole entry): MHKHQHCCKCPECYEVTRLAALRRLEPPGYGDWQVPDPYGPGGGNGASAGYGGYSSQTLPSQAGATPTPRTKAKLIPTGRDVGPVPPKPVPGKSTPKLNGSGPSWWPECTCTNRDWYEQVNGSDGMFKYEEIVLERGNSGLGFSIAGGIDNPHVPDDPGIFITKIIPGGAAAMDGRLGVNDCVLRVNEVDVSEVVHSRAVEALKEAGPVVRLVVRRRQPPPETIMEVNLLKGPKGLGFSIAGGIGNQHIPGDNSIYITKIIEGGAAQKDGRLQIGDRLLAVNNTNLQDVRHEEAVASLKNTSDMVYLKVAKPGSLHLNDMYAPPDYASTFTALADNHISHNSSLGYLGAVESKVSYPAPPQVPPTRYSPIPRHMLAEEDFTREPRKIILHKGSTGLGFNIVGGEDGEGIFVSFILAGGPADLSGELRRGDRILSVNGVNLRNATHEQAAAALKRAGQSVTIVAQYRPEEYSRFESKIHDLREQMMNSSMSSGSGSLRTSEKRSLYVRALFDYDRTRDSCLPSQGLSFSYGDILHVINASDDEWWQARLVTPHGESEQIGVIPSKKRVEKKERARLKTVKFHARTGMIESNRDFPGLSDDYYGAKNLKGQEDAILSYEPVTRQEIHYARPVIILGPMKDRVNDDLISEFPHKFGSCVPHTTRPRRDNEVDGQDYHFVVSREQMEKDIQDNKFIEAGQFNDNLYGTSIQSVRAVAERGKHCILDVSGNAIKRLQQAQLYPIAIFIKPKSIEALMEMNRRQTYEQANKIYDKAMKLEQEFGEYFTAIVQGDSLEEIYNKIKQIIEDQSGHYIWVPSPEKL
# Procedure, shortened: as §1
# [3] = target: T3, UniProt Q92851 and related entries
# T3 sequence (whole entry): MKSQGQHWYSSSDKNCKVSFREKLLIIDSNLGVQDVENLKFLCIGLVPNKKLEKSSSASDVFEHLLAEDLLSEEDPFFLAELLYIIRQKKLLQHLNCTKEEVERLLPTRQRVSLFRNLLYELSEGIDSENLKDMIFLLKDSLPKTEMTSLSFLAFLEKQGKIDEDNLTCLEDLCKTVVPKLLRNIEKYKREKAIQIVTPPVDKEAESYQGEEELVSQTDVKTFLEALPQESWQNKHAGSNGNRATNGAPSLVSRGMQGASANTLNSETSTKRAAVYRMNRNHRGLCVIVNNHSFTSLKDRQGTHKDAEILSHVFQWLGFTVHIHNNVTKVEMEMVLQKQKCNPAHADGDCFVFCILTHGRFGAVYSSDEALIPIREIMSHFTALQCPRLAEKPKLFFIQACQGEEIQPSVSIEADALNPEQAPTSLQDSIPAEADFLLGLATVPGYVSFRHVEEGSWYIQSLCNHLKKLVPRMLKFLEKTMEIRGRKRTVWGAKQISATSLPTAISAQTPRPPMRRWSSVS
# Procedure, shortened: as §1
# [4] = target: T4, UniProt Q969V3 and related entries
# T4 sequence (whole entry): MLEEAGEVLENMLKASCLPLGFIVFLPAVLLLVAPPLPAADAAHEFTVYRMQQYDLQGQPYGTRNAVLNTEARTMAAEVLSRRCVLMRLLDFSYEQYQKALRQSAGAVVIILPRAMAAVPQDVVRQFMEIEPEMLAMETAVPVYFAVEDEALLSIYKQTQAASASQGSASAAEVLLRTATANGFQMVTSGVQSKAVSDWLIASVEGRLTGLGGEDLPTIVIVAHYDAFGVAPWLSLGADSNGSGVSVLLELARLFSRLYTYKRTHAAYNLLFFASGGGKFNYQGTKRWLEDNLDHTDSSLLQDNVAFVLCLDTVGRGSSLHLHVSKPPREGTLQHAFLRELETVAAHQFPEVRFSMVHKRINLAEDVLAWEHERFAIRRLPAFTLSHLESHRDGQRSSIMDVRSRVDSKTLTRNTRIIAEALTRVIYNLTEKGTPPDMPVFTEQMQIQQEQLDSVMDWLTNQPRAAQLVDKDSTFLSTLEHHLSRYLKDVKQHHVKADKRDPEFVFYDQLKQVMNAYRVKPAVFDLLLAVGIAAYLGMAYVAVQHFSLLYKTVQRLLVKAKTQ
# Procedure, shortened: as §1
# [5] = target: T5, UniProt Q96AQ8 and related entries
# T5 sequence (whole entry): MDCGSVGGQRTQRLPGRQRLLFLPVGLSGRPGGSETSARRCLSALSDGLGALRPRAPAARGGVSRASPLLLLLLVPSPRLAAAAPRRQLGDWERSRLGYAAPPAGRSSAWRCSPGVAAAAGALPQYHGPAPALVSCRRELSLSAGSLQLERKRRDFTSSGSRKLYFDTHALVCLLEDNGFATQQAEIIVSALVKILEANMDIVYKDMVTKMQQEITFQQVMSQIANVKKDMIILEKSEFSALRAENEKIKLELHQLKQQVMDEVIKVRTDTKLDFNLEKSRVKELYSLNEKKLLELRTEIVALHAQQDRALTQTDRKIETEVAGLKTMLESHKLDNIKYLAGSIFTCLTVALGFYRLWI
# Procedure, shortened: as §1
# [6] = target: T6, UniProt Q96AX2 and related entries
# T6 sequence (whole entry): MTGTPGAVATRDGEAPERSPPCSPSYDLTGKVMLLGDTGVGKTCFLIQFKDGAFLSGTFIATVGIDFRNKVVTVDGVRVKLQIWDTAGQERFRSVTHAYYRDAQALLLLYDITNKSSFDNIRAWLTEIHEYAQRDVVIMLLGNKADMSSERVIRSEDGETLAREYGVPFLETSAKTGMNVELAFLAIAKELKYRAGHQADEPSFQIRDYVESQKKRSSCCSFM
# Procedure, shortened: as §1
compound,measurement,setting,value
Nc1nc2c(ncn2[C@@H]2O[C@H](COP(=O)(O)OP(=O)(O)OP(=O)(O)O)[C@@H](O)[C@H]2O)c(=O)[nH]1 [guanosine triphosphate],NP40-soluble protein abundance,[1]; concentration: 4mM,1.13 ± 0.037
same,NP40-soluble protein abundance,[1]; concentration: 6mM,1.19 ± 0.05
same,NP40-soluble protein abundance,[1]; concentration: 8mM,1.24 ± 0.1
same,NP40-soluble protein abundance,[1]; concentration: 10mM,1.19 ± 0.066
same,NP40-soluble protein abundance,[2]; concentration: 0.1mM,1.15 ± 0.034
same,NP40-soluble protein abundance,[2]; concentration: 0.5mM,1.17 ± 0.023
same,NP40-soluble protein abundance,[2]; concentration: 1mM,1.17 ± 0.037
same,NP40-soluble protein abundance,[2]; concentration: 2mM,1.17 ± 0.038
same,NP40-soluble protein abundance,[2]; concentration: 4mM,1.13 ± 0.03
same,NP40-soluble protein abundance,[2]; concentration: 6mM,1.12 ± 0.07
same,NP40-soluble protein abundance,[2]; concentration: 8mM,1.18 ± 0.018
same,NP40-soluble protein abundance,[2]; concentration: 10mM,1.14 ± 0.037
same,NP40-soluble protein abundance,[3]; concentration: 0.1mM,1.06 ± 0.045
same,NP40-soluble protein abundance,[3]; concentration: 0.5mM,1.04 ± 0.016
same,NP40-soluble protein abundance,[3]; concentration: 1mM,1 ± 0.058
same,NP40-soluble protein abundance,[3]; concentration: 2mM,0.99 ± 0.054
same,NP40-soluble protein abundance,[3]; concentration: 4mM,0.994 ± 0.097
same,NP40-soluble protein abundance,[3]; concentration: 6mM,0.951 ± 0.075
same,NP40-soluble protein abundance,[3]; concentration: 8mM,0.915 ± 0.06
same,NP40-soluble protein abundance,[3]; concentration: 10mM,0.884 ± 0.085
same,NP40-soluble protein abundance,[4]; concentration: 0.1mM,1.08 ± 0.019
same,NP40-soluble protein abundance,[4]; concentration: 0.5mM,1.03 ± 0.032
same,NP40-soluble protein abundance,[4]; concentration: 1mM,0.972 ± 0.013
same,NP40-soluble protein abundance,[4]; concentration: 2mM,0.981 ± 0.044
same,NP40-soluble protein abundance,[4]; concentration: 4mM,1 ± 0.023
same,NP40-soluble protein abundance,[4]; concentration: 6mM,0.9519 ± 0.0095
same,NP40-soluble protein abundance,[4]; concentration: 8mM,0.955 ± 0.046
same,NP40-soluble protein abundance,[4]; concentration: 10mM,0.936 ± 0.056
same,NP40-soluble protein abundance,[5]; concentration: 0.1mM,0.9131 ± 0.0083
same,NP40-soluble protein abundance,[5]; concentration: 0.5mM,0.922 ± 0.028
same,NP40-soluble protein abundance,[5]; concentration: 1mM,0.945 ± 0.053
same,NP40-soluble protein abundance,[5]; concentration: 2mM,0.947 ± 0.071
same,NP40-soluble protein abundance,[5]; concentration: 4mM,0.918 ± 0.089
same,NP40-soluble protein abundance,[5]; concentration: 6mM,0.924 ± 0.042
same,NP40-soluble protein abundance,[5]; concentration: 8mM,0.848 ± 0.13
same,NP40-soluble protein abundance,[5]; concentration: 10mM,0.902 ± 0.044
same,NP40-soluble protein abundance,[6]; concentration: 0.1mM,1.04 ± 0.043
same,NP40-soluble protein abundance,[6]; concentration: 0.5mM,1.03 ± 0.064
same,NP40-soluble protein abundance,[6]; concentration: 1mM,0.946 ± 0.1
same,NP40-soluble protein abundance,[6]; concentration: 2mM,1 ± 0.12
same,NP40-soluble protein abundance,[6]; concentration: 4mM,0.956 ± 0.13
same,NP40-soluble protein abundance,[6]; concentration: 6mM,0.921 ± 0.085

# In another format: entries from further up.
compound	measurement	setting	value
Nc1nc2c(ncn2[C@@H]2O[C@H](COP(=O)(O)OP(=O)(O)OP(=O)(O)O)[C@@H](O)[C@H]2O)c(=O)[nH]1 [guanosine triphosphate]	NP40-soluble protein abundance	[5]; concentration: 10mM	0.902 ± 0.044
same	NP40-soluble protein abundance	[6]; concentration: 0.1mM	1.04 ± 0.043
same	NP40-soluble protein abundance	[6]; concentration: 0.5mM	1.03 ± 0.064
